The other results are listed elsewhere or left out. These are further read-outs of the screen, such as a control signal, another cell line or another target. No call is given for them. The list favours compounds with an active or inconclusive main result. Words in brackets tell the shape of the fitted curve; partial curves, single points and poor fits give uncertain potencies.
Assay: qHTS Assay for Lipid Storage Modulators in Drosophila S3 Cells;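 as to cell number change: cells counted by Cell Tracker Red CMTPX staining in the red channel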
Conditions: BODIPY lipid droplet fluorescence, 18-24 h; for cell number change: measured here: cell count max response, cells fed with added oleic acid
Procedure, shortened: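 Drosophila S3 cells got compounds at several concentrations plus oleic acid (400 uM solution). Laser-scanning cytometry with 488 nm excitation read lipid droplets at 500-530 nm and cells at 575-640 nm. Percent activity was relative to 20 uM Triacsin C.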

[1] = measured here: lipid fluorescence (Fed channel) AC50, cells fed with added oleic acid
[2] = measured here: cell number channel AC50, cells fed with added oleic acid

SMILES | cell number change [%] | AC50 [1] | AC50 [2]
Nc1ccn(CC(=O)NCCc2ccccn2)c(=O)n1 | 13.1 | 16400 nM [rising, single point] | 
CCCCNc1nnc(SCC(=O)N2CCN(S(=O)(=O)c3ccc4ccccc4c3)CC2)s1 |  | 2310 nM [rising, partial curve] | 6510 nM [rising, single point]
O=C1NC(=S)S/C1=C1\Sc2ccccc2N1CCCS(=O)(=O)O | 7.97 | 29100 nM [falling, partial curve] | 
O=c1[nH]c2ccccc2cc1CN(Cc1cccnc1)S(=O)(=O)c1ccc(Cl)cc1 | -37.3 | 29100 nM [falling, single point] | 13000 nM [falling, partial curve, poor fit]
Cc1c(-c2cccc(Cl)c2)nc2ccccc2c1C(=O)NC1CC1 | -1.7 | 29100 nM [rising, single point] | 
CC(C(=O)NCC1CCCCC1)N1CCN(S(=O)(=O)c2cccs2)CC1 (stereo not drawn) | 38.6 |  | 14600 nM [rising, single point]
COCCNC(=S)NN(c1ccccc1)c1ccccc1 | -29 | 631 nM [falling, full curve, poor fit] | 631 nM [falling, full curve, poor fit]
CC1CN(C(=O)CCC(=O)NCCc2ccccc2)c2ccccc2O1 (stereo not drawn) | -6.63 |  | 
OCc1nc2ccc(Cl)cc2[nH]1 | 23.7 | 184 nM [rising, full curve, poor fit] | 
CC(C)CN(C(=O)COC(=O)c1ccccc1Sc1ccccc1C#N)C1CCS(=O)(=O)C1 (stereo not drawn) |  | 7310 nM [rising, partial curve] | 5800 nM [rising, single point]
CC(NC(=O)C(=O)NCCN1CCN(C(=O)c2ccccc2Br)CC1)c1ccccc1 (stereo not drawn) | 12.8 |  | 
COCCCNC(=S)Nc1cc(C)c(C)cc1C | -2.06 | 651 nM [falling, single point] | 
COC(=O)c1ccccc1NC(=O)C1CCN(C(=O)c2cc(OC)c(OC)c(OC)c2)CC1 | 50.7 | 1460 nM [rising, partial curve] | 1300 nM [rising, full curve]
COCCCNC(=O)c1ccc(N2CCOCC2)c(NS(=O)(=O)c2ccc(OC)cc2)c1 | 7.19 | 116 nM [rising, full curve, poor fit] | 
Cc1ccc(C2(CCNCc3ccc(N(C)C)cc3)CCOC(C(C)C)C2)cc1 (stereo not drawn) | -13.2 | 6510 nM [falling, partial curve, poor fit] | 164 nM [falling, full curve, poor fit]
CCN(CC)CCCCOc1ccccc1OC | -67.2 |  | 16400 nM [falling, partial curve, poor fit]
COc1ccc(C(=O)/C=C/c2cccc(OCc3ccccc3)c2)cc1CSCC(=O)O | 20.7 | 14100 nM [falling, partial curve] | 
CC(=O)c1ccc(OCC(=O)N2CCN(S(=O)(=O)c3ccc(C)cc3C)CC2)cc1 | 17.2 | 316 nM [falling, single point] | 
CC1=C(C(=O)NC2CCCCC2C)C2(CCC(C)CC2)OC1=O (stereo not drawn) | -15.8 | 2060 nM [falling, partial curve] | 2060 nM [falling, partial curve]
CCOC(=O)c1ccc(NC(=O)CCNS(=O)(=O)c2cccs2)cc1 | 4.05 | 29100 nM [rising, single point] | 

SMILES | cell number change [%] | AC50 [1] | AC50 [2]
O=C(O)CSc1nnc(CNc2cccc(C(F)(F)F)c2)n1Cc1ccco1 | 0.65 | 651 nM [rising, partial curve] | 
O=c1ccc(-c2ccc(S(=O)(=O)Nc3ccc(F)cc3)s2)n[nH]1 | -38.6 |  | 32600 nM [falling, partial curve, poor fit]
COc1ccc(CC(=O)NCC(=O)N/N=C/c2sccc2C)cc1 | -1.52 |  | 580 nM [rising, single point]
Cc1ccc(C(=O)N/N=C\c2ccc(-c3ccc(Cl)c(Cl)c3)o2)cn1 | -16.9 | 4.11 nM [falling, full curve, poor fit] | 5.8 nM [falling, full curve, poor fit]
CCc1nn(CCCC(=O)Nc2ccc(C)c(C)c2)c(=O)c2cc3occc3n12 | -6.49 | 103 nM [rising, full curve, poor fit] | 
CN1CCN(c2nc3c(c(=O)[nH]c(=O)n3C)n2Cc2ccc(Cl)cc2)CC1 | 12.8 |  | 
COc1ccccc1NC(=O)N(Cc1ccco1)Cc1cc2cccc(C)c2[nH]c1=O |  | 1460 nM [rising, full curve, poor fit] | 
Cn1nccc1C(=O)N/N=C/c1c(O)ccc2ccccc12 |  | 11600 nM [falling, partial curve] | 
COc1ccc(CCN(C)C(=O)CSc2nnc(-c3ccco3)o2)cc1OC | -9.38 | 20600 nM [falling, single point] | 
COc1cc(C(=O)Nc2c(C(=O)O)[nH]c3ccc(Br)cc23)cc(OC)c1OC | 2.78 |  | 
Cc1ccc(NC(=O)CSc2nc3ccccc3nc2N2CCCC2)cc1 | -2.59 |  | 
Cc1ccccc1NC(=O)COC(=O)c1ccc2c(c1)OCCO2 | 57 |  | 2590 nM [rising, full curve]
O=c1cc(Nc2ccc3c(c2)OCCO3)[nH]c(=O)n1-c1ccc(Cl)cc1 |  | 651 nM [falling, full curve, poor fit] | 
CCN1CCN(C(=O)C2CCN(S(=O)(=O)c3cccc4cccnc34)CC2)CC1 |  | 461 nM [rising, partial curve, poor fit] | 
O=C(CN1CCCC1=O)NC1C2CC3CC(C2)CC1C3 (stereo not drawn) | -28.5 | 326 nM [falling, full curve] | 3.66 nM [falling, full curve, poor fit]
COc1ccc(/C=N/NC(=O)c2cccnc2)cc1O | 14.6 | 20600 nM [rising, single point] | 
Cn1c(CNC(=O)CNC(=O)c2ccccc2F)cc(=O)n(C)c1=O | 35.8 | 4.61 nM [rising, full curve, poor fit] | 4.61 nM [rising, full curve]
CC(C)[C@H](NC(=O)N1CC(=O)Nc2ccccc21)C(=O)N[C@@H](Cc1c[nH]c2ccccc12)C(=O)O | 14.6 | 29100 nM [rising, single point] | 
COCCn1nnnc1C(c1ccc(OC)cc1OC)N1CCN(c2ccccc2)CC1 (stereo not drawn) | -12.1 |  | 
CCc1cc2c(=O)[nH]c(-c3ccccn3)nc2s1 | -16.4 | 16400 nM [falling, single point] | 

Some of the entries so far, with tabs.
SMILES	cell number change [%]	AC50 [1]	AC50 [2]
CN1CCN(c2nc3c(c(=O)[nH]c(=O)n3C)n2Cc2ccc(Cl)cc2)CC1	12.8		
COc1ccccc1NC(=O)N(Cc1ccco1)Cc1cc2cccc(C)c2[nH]c1=O		1460 nM [rising, full curve, poor fit]	
Cn1nccc1C(=O)N/N=C/c1c(O)ccc2ccccc12		11600 nM [falling, partial curve]	

Full records, looked up by structure.
Nc1ccn(CC(=O)NCCc2ccccn2)c(=O)n1 is listed with cell number change [%]: 13.1; AC50 [1]: 16400 nM [rising, single point]
Cc1ccc(C(=O)N/N=C\c2ccc(-c3ccc(Cl)c(Cl)c3)o2)cn1 is listed with cell number change [%]: -16.9; AC50 [1]: 4.11 nM [falling, full curve, poor fit]; AC50 [2]: 5.8 nM [falling, full curve, poor fit]

Continuation.

SMILES | cell number change [%] | AC50 [1] | AC50 [2]
O=c1c2c([nH]c3ccc(Br)cc13)CCCC2 | -4.08 |  | 
COc1cc(OC)cc(C(=O)NC(C(=O)O)C23CC4CC(CC(C4)C2)C3)c1 (stereo not drawn) | 1.08 |  | 
CCOc1ccc(NC(=O)CN(C)C(=O)c2ccccc2-n2cnnn2)cc1OCC | 18.9 |  | 
Cc1ccc(C(=O)Nc2sc(Cc3ccc4c(c3)OCO4)c(C)c2C(N)=O)cc1 |  | 1160 nM [rising, full curve] | 
Cc1ccc(C)c(NC(=O)Cn2nnc(-c3ccc(N4CCOCC4)cc3)n2)c1 | -28.4 |  | 
COc1ccc(C(=O)NC2CCN(C(=O)NC3CCCCC3)CC2)cc1 | -4.29 | 103 nM [falling, single point] | 
Fc1ccc(NCc2nnc(SCc3nnc(-c4ccccc4)o3)n2CC2CCCO2)cc1 (stereo not drawn) |  | 2590 nM [rising, partial curve] | 2060 nM [rising, partial curve]
Cc1sc2ncnc(-n3nnc4ccccc43)c2c1C | 12.3 | 1160 nM [rising, single point] | 1300 nM [rising, single point]
CCOC(=O)Cn1c(=O)oc2cc(S(=O)(=O)N3CCCc4ccccc43)ccc21 | 11.1 |  | 291 nM [rising, full curve]
CCOc1ccc(NC(=S)/C(=C(\[O-])c2ccc(C)c([N+](=O)[O-])c2)[n+]2ccccc2)cc1 | 29.4 | 6510 nM [falling, single point] | 
Cc1cccc(-n2nnc(C(=O)N3CCc4ccccc4C3)c2N)c1 | 15.5 |  | 
CN(C)CCCNCCCNC(=O)/C=N/O | -4.41 | 65.1 nM [rising, full curve] | 
CCn1nccc1C(=O)Nc1cc(Cl)cc(Cl)c1 | -43.4 | 20600 nM [falling, single point] | 18400 nM [falling, single point]
O=C(COC(=O)Cc1cccs1)Nc1ccccc1Cl | -7.33 |  | 
CCNC(=S)N(CCc1c(C)[nH]c2ccc(C)cc12)Cc1cc(OC)c(OC)c(OC)c1 | 11.9 | 820 nM [rising, full curve] | 
O=C1C(Cl)=C(NS(=O)(=O)c2ccc([N+](=O)[O-])cc2)C(=O)c2ccccc21 | -16.3 | 820 nM [falling, partial curve] | 
O=C(CSc1nnc(C23CC4CC(CC(C4)C2)C3)o1)Nc1ccc(N2CCOCC2)c(Cl)c1 | -2.76 | 3260 nM [falling, partial curve] | 
CCC(C(=O)OC)n1cnc2c(nnn2-c2cccc(Cl)c2)c1=O (stereo not drawn) | -32.3 | 29100 nM [falling, single point] | 
O=C(COC(=O)CC1CCCC1)Nc1ccccc1[N+](=O)[O-] | -3.89 | 14600 nM [rising, partial curve, poor fit] | 
O=S(=O)(Nc1ccc(Br)cc1)N1CCOCC1 | -28.2 | 29100 nM [falling, single point] | 

From PubChem BioAssay AID2685 (National Center for Advancing Translational Sciences (NCATS), 2010)
